Measured values: the supplement of paper PMC10849652
Some of the results follow.

Amino acid sequences for entries named in this document (tags omitted). A change or cut given only in a name is not applied to a line headed by its entry.
UniProt A8MPS7: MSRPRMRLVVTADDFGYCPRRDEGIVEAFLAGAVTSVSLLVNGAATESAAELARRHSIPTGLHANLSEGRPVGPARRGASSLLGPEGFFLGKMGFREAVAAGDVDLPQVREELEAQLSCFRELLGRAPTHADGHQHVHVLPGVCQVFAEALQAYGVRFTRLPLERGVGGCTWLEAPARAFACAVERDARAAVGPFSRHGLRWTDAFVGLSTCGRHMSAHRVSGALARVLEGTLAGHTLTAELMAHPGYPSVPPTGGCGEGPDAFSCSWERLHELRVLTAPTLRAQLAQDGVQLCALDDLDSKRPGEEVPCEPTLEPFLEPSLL
UniProt Q96TA2: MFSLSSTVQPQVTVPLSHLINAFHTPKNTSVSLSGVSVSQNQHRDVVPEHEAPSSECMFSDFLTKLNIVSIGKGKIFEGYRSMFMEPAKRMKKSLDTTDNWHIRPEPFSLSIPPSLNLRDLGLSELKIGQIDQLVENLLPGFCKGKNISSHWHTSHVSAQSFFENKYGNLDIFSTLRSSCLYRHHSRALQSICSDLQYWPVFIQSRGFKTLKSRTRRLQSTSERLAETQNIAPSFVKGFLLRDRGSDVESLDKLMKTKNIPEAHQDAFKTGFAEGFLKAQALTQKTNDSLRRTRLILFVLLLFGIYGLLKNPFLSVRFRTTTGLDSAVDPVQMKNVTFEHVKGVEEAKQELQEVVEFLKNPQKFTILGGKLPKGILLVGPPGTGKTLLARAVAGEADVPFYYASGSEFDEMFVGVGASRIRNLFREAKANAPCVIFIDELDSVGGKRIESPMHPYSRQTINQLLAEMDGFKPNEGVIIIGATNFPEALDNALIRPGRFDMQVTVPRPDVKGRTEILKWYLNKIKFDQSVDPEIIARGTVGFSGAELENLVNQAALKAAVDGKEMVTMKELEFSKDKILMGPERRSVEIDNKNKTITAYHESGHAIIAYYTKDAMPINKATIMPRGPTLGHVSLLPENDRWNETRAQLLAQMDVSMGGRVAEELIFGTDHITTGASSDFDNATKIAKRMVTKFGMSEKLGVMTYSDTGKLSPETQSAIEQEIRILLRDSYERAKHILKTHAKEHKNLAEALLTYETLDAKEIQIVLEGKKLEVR
UniProt Q9NRH1: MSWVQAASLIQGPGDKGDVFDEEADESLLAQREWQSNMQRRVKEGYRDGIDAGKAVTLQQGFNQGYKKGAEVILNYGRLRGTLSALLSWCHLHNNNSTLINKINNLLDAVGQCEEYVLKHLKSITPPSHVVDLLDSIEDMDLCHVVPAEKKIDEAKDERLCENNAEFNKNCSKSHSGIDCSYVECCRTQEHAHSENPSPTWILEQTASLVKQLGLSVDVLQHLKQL
UniProt Q13426: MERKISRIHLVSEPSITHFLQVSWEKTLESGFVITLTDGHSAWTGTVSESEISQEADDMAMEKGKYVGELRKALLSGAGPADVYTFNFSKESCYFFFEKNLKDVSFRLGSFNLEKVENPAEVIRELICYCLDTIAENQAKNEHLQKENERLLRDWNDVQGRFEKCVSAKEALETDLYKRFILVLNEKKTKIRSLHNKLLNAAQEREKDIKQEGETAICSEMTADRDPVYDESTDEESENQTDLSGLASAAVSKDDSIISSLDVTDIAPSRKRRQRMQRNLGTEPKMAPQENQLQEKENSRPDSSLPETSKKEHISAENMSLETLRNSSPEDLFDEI
UniProt O95619, whole entry, looked up: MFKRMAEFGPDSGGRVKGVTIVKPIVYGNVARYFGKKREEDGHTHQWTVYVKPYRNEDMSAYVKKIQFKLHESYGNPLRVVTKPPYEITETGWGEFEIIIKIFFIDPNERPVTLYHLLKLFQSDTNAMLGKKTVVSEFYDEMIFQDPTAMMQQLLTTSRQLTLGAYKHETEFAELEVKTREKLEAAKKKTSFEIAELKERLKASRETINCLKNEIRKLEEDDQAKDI
UniProt Q9NUD5: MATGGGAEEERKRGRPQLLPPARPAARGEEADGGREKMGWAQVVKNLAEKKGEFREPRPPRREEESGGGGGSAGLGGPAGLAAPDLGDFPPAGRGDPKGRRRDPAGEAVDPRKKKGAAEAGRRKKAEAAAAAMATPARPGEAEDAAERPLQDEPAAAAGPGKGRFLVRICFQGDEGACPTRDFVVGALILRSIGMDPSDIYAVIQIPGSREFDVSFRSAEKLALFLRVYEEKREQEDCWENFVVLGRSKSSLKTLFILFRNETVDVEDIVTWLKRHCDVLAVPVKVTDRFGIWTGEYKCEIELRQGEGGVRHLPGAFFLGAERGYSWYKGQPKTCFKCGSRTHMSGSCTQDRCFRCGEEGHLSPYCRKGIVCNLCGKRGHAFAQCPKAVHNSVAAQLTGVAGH
UniProt O43670: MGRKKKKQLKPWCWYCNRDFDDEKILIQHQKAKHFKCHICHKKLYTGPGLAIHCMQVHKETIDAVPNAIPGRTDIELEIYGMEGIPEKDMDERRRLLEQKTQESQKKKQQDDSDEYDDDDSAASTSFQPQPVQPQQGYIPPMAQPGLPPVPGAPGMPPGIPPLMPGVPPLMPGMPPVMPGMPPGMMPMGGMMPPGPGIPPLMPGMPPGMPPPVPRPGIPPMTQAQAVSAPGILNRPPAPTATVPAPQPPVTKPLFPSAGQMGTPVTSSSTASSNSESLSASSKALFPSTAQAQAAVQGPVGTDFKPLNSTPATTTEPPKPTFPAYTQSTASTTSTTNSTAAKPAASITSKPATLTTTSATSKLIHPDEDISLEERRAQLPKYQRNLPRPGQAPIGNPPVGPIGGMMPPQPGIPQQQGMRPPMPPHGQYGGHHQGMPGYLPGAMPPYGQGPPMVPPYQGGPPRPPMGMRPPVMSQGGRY
UniProt Q9H0D6: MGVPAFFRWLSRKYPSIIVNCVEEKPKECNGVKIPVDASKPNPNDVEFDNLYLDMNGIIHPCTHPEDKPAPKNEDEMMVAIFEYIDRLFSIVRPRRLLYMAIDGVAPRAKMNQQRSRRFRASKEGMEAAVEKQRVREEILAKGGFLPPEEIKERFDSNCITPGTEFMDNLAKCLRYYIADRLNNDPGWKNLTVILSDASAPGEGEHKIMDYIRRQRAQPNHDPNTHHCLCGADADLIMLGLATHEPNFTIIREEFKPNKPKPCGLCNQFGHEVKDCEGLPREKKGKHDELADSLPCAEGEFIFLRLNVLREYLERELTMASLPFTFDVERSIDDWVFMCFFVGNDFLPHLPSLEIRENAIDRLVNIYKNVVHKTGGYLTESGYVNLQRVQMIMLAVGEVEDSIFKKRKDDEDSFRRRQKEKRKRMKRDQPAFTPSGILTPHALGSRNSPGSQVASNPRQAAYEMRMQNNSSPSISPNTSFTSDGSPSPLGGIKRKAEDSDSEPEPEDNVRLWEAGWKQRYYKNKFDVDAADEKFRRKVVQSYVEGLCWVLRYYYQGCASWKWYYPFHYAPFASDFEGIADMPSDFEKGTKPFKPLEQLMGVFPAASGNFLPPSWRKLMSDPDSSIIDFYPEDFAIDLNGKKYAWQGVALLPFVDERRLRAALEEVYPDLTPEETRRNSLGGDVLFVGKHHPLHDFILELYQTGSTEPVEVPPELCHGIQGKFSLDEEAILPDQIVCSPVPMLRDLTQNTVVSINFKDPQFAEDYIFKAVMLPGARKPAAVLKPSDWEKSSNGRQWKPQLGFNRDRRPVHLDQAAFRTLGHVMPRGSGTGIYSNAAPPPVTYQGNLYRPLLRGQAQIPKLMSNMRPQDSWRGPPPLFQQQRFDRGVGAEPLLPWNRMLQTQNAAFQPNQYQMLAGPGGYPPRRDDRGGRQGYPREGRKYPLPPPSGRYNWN
UniProt P16989, whole entry, looked up: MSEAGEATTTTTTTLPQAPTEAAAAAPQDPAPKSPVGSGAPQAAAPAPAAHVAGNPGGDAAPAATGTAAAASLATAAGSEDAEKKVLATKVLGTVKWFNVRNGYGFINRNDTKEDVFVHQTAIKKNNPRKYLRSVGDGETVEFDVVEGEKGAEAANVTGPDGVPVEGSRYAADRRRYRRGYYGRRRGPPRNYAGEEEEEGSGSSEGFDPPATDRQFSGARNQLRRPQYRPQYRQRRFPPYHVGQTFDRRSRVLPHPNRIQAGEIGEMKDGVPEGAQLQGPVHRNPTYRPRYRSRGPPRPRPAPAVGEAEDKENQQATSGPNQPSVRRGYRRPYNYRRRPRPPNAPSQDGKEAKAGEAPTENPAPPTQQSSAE
UniProt Q7Z739: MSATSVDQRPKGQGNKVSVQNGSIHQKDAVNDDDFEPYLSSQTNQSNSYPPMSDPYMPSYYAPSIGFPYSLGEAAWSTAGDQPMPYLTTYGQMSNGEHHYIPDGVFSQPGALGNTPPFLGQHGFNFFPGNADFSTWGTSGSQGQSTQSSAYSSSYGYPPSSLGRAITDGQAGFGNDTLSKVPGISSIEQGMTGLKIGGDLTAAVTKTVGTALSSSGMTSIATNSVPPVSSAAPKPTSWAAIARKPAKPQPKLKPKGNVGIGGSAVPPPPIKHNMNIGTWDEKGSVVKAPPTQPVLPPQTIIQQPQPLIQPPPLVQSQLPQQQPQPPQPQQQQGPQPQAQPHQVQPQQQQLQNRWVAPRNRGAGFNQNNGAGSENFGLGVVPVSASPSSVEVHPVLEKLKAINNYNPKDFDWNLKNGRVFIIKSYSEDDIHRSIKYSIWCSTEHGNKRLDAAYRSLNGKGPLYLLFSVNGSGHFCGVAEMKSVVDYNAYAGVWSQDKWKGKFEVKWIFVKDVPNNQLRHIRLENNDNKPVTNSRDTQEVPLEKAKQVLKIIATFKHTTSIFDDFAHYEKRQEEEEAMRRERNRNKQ
UniProt Q8WV99: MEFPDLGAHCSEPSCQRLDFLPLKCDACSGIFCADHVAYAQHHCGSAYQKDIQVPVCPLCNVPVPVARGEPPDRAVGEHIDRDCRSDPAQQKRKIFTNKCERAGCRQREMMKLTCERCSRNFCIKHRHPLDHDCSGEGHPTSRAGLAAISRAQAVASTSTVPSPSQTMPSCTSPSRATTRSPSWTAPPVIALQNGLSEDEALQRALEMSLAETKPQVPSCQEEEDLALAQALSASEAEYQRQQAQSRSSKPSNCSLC
UniProt Q04917: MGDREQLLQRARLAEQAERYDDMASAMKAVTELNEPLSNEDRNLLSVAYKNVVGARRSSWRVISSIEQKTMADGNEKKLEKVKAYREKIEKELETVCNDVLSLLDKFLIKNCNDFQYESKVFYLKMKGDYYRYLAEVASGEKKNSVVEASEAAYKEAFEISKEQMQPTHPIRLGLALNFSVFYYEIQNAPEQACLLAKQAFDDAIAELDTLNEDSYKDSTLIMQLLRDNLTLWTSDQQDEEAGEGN
UniProt Q9GZM5: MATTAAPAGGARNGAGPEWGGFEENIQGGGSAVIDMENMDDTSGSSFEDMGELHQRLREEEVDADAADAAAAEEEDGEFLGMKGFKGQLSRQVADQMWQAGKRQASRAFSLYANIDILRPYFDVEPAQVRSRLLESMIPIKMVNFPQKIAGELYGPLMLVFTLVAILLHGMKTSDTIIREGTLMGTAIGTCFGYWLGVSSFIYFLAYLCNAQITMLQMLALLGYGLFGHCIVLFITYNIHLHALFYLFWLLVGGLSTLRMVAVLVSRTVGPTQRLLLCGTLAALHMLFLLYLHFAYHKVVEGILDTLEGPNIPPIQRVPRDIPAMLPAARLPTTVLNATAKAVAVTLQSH
UniProt Q7Z2W4: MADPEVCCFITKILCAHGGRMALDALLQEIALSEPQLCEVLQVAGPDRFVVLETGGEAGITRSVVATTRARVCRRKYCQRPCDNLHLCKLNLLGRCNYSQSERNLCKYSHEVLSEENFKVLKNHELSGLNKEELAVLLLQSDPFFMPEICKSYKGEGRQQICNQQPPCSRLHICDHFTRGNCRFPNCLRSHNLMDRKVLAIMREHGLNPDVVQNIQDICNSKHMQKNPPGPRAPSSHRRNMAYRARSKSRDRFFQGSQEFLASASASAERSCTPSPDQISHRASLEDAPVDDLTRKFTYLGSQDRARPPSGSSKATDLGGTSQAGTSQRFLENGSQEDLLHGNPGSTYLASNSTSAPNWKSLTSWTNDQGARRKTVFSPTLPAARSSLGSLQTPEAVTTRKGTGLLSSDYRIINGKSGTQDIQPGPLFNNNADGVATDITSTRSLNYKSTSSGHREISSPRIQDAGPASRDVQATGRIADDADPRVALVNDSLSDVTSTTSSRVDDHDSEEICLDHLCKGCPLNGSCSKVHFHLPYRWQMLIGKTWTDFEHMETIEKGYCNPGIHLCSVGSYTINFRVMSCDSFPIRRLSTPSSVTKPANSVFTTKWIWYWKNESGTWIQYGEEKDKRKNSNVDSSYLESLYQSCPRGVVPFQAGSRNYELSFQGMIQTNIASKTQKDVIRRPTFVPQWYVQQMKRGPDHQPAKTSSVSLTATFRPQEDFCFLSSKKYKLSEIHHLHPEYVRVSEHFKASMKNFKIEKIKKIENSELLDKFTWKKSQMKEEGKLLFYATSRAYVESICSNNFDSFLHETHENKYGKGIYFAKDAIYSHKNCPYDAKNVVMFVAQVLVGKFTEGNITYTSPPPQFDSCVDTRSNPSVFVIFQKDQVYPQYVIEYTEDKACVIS

Tests used:
Assay in all cases: log2 fold change, soluble protein after heating vs DMSO (PISA); higher = thermal stabilisation; K562 cells, 10 uM, 30 min; active = over 0.2 and 3.5 SD of the protein, either way, in both replicates (recomputed)
[1] = compound: CN1CCN(CCOc2cc(OC3CCOCC3)c3c(Nc4c(Cl)ccc5c4OCO5)ncnc3c2)CC1 [saracatinib]
Outline: (§1)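 Soluble protein was defined as the supernatant after 21,000xg for 90 min. It came from K562 cells at 2×10^6 cells/mL given 10 μM compound for 30 min, heated in aliquots for 3 min across 48°C-58°C, pooled, and extracted in PBS with 0.5% NP-40 at 4°C, and was quantified by TMTpro 16plex LC-MS/MS with equalised channel sums. Thermal stability against control samples, from duplicates, is reported as log2 fold change.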

[2] = compound: CN1CCN(c2nc(C3=C(c4c[nH]c5ccccc45)C(=O)NC3=O)c3ccccc3n2)CC1 [sotrastaurin]
Outline: as §1

[3] = compound: CN1CC[C@H](c2c(O)cc(O)c3c(=O)cc(-c4ccccc4Cl)oc23)[C@H](O)C1 [alvocidib]
Outline: as §1

[4] = compound: CN1CCc2c(c3ccccc3n2Cc2ccc(C(=O)NO)cc2)C1 [Tubastatin A]
Outline: as §1

[5] = compound: CNC(=O)C1=CC=CC=C1NC2=NC(=NC=C2Cl)NC3=C(C=C(C=C3)N4CCOCC4)OC
Outline: as §1

[6] = compound: CNC(=O)c1ccc(Nc2ncc(C(F)(F)F)c(NCc3nccnc3N(C)S(C)(=O)=O)n2)cc1 [defactinib]
Outline: as §1

[7] = compound: CNCc1ccc(-c2[nH]c3cc(F)cc4c3c2CCNC4=O)cc1 [rucaparib]
Outline: as §1

[8] = compound: CNc1nc(-c2ccc3c(N)n[nH]c3c2)cc(N2C[C@@H](C(=O)NC3CCCCC3)CC[C@H]2C)n1
Outline: as §1

[9] = compound: COC(=O)N[C@@H](C)CNc1nccc(-c2cn(C(C)C)nc2-c2cc(Cl)cc(NS(C)(=O)=O)c2F)n1 [encorafenib]
Outline: as §1

[10] = compound: COC(=O)[C@H](CCSC)NC(=O)C1=C(C=C(C=C1)NC[C@H](CS)N)C2=CC=CC=C2
Outline: as §1

[11] = compound: COC1=CC=C(C=C1)CN2C=CC3=C2C=C(C=C3)C(=O)NO
Outline: as §1

[12] = compound: CON(C)C(=O)N1N=C(c2cc(F)ccc2F)S[C@@]1(CCCN)c1ccccc1 [filanesib]
Outline: as §1

[13] = compound: CO[C@H]1C[C@@H]2CC[C@@H](C)[C@@](O)(O2)C(=O)C(=O)N2CCCC[C@H]2C(=O)O[C@H]([C@H](C)C[C@@H]2CC[C@H](n3cnnn3)[C@H](OC)C2)CC(=O)[C@H](C)/C=C(\C)[C@@H](O)[C@@H](OC)C(=O)[C@H](C)C[C@H](C)/C=C/C=C/C=C/1C [zotarolimus]
Outline: as §1

[14] = compound: COc1cc(C(=O)O)ccc1NC(=O)[C@@H]1N[C@@H](CC(C)(C)C)[C@](C#N)(c2ccc(Cl)cc2F)[C@H]1c1cccc(Cl)c1F [idasanutlin]
Outline: as §1

[15] = compound: COc1cc(Nc2ncc3c(n2)-c2ccc(Cl)cc2C(c2c(F)cccc2OC)=NC3)ccc1C(=O)O [alisertib]
Outline: as §1

[16] = compound: COc1cc2nc(-c3cc(F)ccc3O)nc(N[C@@H]3CNC[C@H]3C(C)(C)O)c2cc1OC
Outline: as §1

[17] = compound: COc1cc2ncnc(Nc3ccc(F)c(Cl)c3)c2cc1OCCCN1CCOCC1 [gefitinib]
Outline: as §1

[18] = compound: COc1cccc2cc(-c3nc([C@H]4CC[C@H](C(=O)O)CC4)n4ncnc(N)c34)[nH]c12
Outline: as §1

[19] = compound: CS(=O)(=O)CCNCc1ccc(-c2ccc3ncnc(Nc4ccc(OCc5cccc(F)c5)c(Cl)c4)c3c2)o1 [lapatinib]
Outline: as §1

[20] = compound: CS(=O)(=O)N1CCN(Cc2cc3nc(-c4cccc5[nH]ncc45)nc(N4CCOCC4)c3s2)CC1 [pictilisib]
Outline: as §1

Measured: log2 fold change

YDJC (UniProt A8MPS7)
inactive: [1] -0.009 | [2] 0.001 | [3] -0.126 | [4] 0.02 | [5] 0.042 | [6] -0.025 | [7] -0.044 | [8] 0.011 | [9] 0.013 | [10] 0.025 | [11] 0.03 | [12] -0.055 | [13] 0.03 | [14] -0.049 | [15] 0 | [16] 0.017 | [17] -0.055 | [18] 0.083 | [19] -0.026 | [20] 0.077

YME1L1 (UniProt Q96TA2)
inactive: [1] 0.004 | [2] 0.032 | [3] 0.005 | [4] -0.043 | [5] -0.041 | [6] 0.006 | [7] 0.004 | [8] -0.028 | [9] 0.009 | [10] 0.035 | [11] -0.079 | [12] 0.013 | [13] -0.065 | [14] 0.021 | [15] -0.047 | [16] -0.014 | [17] 0.008 | [18] 0.037 | [19] -0.022 | [20] -0.042

YAE1 (UniProt Q9NRH1)
inactive: [1] 0.025 | [2] 0.074 | [4] -0.018 | [5] -0.002 | [6] 0.026 | [7] -0.078 | [8] -0.092 | [9] 0.007 | [10] 0.059 | [11] 0.013 | [12] 0.133 | [13] 0 | [14] 0.124 | [15] -0.065 | [16] 0.125 | [17] -0.016 | [18] 0.016 | [19] -0.052 | [20] 0.021
active: [3] 0.249

XRCC4 (UniProt Q13426)
inactive: [1] 0.042 | [2] 0.048 | [3] -0.025 | [4] -0.022 | [5] -0.039 | [6] -0.04 | [7] -0.071 | [8] -0.043 | [9] 0.017 | [10] 0.021 | [11] 0.05 | [12] -0.016 | [13] -0.027 | [14] -0.017 | [15] -0.013 | [16] 0.063 | [17] 0 | [18] 0.045 | [19] 0.002 | [20] 0.032

YEATS4 (UniProt O95619)
inactive: [1] 0.053 | [2] 0.011 | [3] 0.04 | [4] -0.021 | [5] 0.033 | [6] -0.001 | [7] 0.03 | [8] -0.051 | [9] -0.005 | [10] -0.008 | [11] -0.073 | [12] 0.022 | [13] -0.019 | [14] -0.025 | [15] -0.032 | [16] 0.158 | [17] -0.028 | [18] -0.05 | [19] -0.084 | [20] -0.005

ZCCHC3 (UniProt Q9NUD5)
inactive: [1] -0.06 | [2] -0.017 | [3] 0.242 | [4] 0.045 | [5] -0.008 | [6] 0.135 | [7] 0.328 | [8] 0.002 | [9] 0.012 | [10] -0.041 | [11] 0.112 | [12] 0.162 | [13] 0.017 | [14] 0.229 | [15] -0.025 | [16] -0.038 | [17] -0.047 | [18] -0.116 | [19] 0.081 | [20] -0.135

ZNF207 isoform 4 (UniProt O43670)
inactive: [1] -0.067 | [2] 0.031 | [3] -0.02 | [4] -0.001 | [5] -0.002 | [6] 0.015 | [7] 0.052 | [8] -0.031 | [9] 0.031 | [10] 0.038 | [11] 0.07 | [12] -0.003 | [13] 0.002 | [14] 0.02 | [15] -0.014 | [16] -0.073 | [17] -0.013 | [18] 0.079 | [19] -0.04 | [20] -0.052

XRN2 (UniProt Q9H0D6)
inactive: [1] 0.011 | [2] 0.052 | [3] 0.085 | [4] 0.015 | [5] 0.015 | [6] 0.045 | [7] -0.046 | [8] -0.035 | [9] 0 | [10] 0.003 | [11] -0.066 | [12] 0.036 | [13] -0.027 | [14] 0.042 | [15] -0.027 | [16] 0.015 | [17] -0.012 | [18] 0.027 | [19] 0.049 | [20] -0.016

YBX3 isoform 2 (UniProt P16989)
inactive: [1] 0.03 | [2] 0.065 | [3] 0.342 | [4] 0.006 | [5] 0.039 | [6] 0.283 | [7] 0.258 | [8] 0.071 | [9] -0.088 | [10] 0.166 | [11] -0.172 | [12] 0.105 | [13] -0.076 | [14] 0.291 | [15] -0.142 | [16] 0.04 | [17] 0.009 | [18] -0.139 | [19] 0.217

ZC3H15 (UniProt Q8WU90)
inactive: [1] -0.027 | [2] 0.058 | [3] 0.055 | [4] 0.014 | [5] -0.006 | [6] 0.085 | [7] 0.092 | [8] 0.016 | [9] 0.035 | [10] 0.022 | [11] -0.002 | [12] 0.148 | [13] 0 | [14] 0.046 | [15] -0.029 | [16] 0.053 | [17] -0.023 | [18] -0.029 | [19] -0.028 | [20] 0.009

YTHDF2 (UniProt Q9Y5A9)
inactive: [1] -0.026 | [2] 0.047 | [3] -0.026 | [4] 0.021 | [5] -0.034 | [6] -0.006 | [7] 0.026 | [8] -0.013 | [9] 0.015 | [10] -0.035 | [11] 0.015 | [12] 0.045 | [13] -0.007 | [14] -0.032 | [15] -0.066 | [16] 0.001 | [17] -0.068 | [18] 0.005 | [19] -0.01 | [20] 0.04

YTHDF3 (UniProt Q7Z739)
inactive: [1] 0.01 | [2] 0.025 | [3] -0.01 | [4] 0.018 | [5] -0.008 | [6] -0.013 | [7] -0.001 | [8] -0.012 | [9] -0.007 | [10] -0.024 | [11] 0.052 | [12] -0.004 | [13] 0.042 | [14] -0.052 | [15] -0.021 | [16] 0.032 | [17] 0.002 | [18] -0.001 | [19] 0.039 | [20] 0.025

ZFAND2B (UniProt Q8WV99)
inactive: [1] 0.036 | [2] 0.136 | [3] 0.012 | [4] 0.002 | [5] 0.029 | [6] 0.01 | [7] -0.017 | [8] 0.016 | [9] 0.01 | [10] 0.09 | [11] -0.064 | [12] -0.12 | [13] -0.029 | [14] -0.009 | [15] -0.055 | [16] -0.038 | [17] 0.008 | [18] -0.015 | [19] 0.048 | [20] -0.036

YWHAH (UniProt Q04917)
inactive: [1] 0.028 | [2] 0.02 | [3] 0.008 | [4] -0.034 | [5] 0.008 | [6] -0.047 | [7] -0.038 | [8] 0.038 | [9] -0.007 | [10] 0.013 | [11] 0.148 | [12] -0.011 | [13] 0.021 | [14] -0.007 | [15] -0.046 | [16] -0.026 | [17] 0.024 | [18] 0.002 | [19] 0.006 | [20] -0.009

YIPF3 (UniProt Q9GZM5)
inactive: [1] 0.07 | [2] 0.007 | [3] 0.04 | [4] -0.024 | [5] -0.007 | [6] 0.032 | [7] -0.056 | [8] -0.038 | [9] 0.033 | [10] 0.039 | [11] 0.076 | [12] -0.015 | [13] 0.012 | [14] -0.109 | [15] -0.046 | [16] -0.002 | [17] 0.025 | [18] 0.047 | [19] -0.058 | [20] 0.005

ZC3HAV1 (UniProt Q7Z2W4)
inactive: [1] -0.127 | [2] -0.077 | [3] 0.245 | [4] 0.024 | [5] -0.05 | [6] 0.066 | [7] 0.581 | [8] 0.122 | [9] 0.231 | [10] 0.011 | [11] -0.039 | [12] 0.304 | [13] 0.04 | [14] 0.383 | [15] -0.088 | [16] 0.016 | [17] -0.023 | [18] -0.211 | [19] 0.211 | [20] -0.136

Looked up one by one from the list above (two):
YDJC (UniProt A8MPS7)
inactive: [1] -0.009 | [2] 0.001 | [3] -0.126 | [4] 0.02 | [5] 0.042 | [6] -0.025 | [7] -0.044 | [8] 0.011 | [9] 0.013 | [10] 0.025 | [11] 0.03 | [12] -0.055 | [13] 0.03 | [14] -0.049 | [15] 0 | [16] 0.017 | [17] -0.055 | [18] 0.083 | [19] -0.026 | [20] 0.077

YWHAH (UniProt Q04917)
inactive: [1] 0.028 | [2] 0.02 | [3] 0.008 | [4] -0.034 | [5] 0.008 | [6] -0.047 | [7] -0.038 | [8] 0.038 | [9] -0.007 | [10] 0.013 | [11] 0.148 | [12] -0.011 | [13] 0.021 | [14] -0.007 | [15] -0.046 | [16] -0.026 | [17] 0.024 | [18] 0.002 | [19] 0.006 | [20] -0.009
